The series can be described thus: general procedure: solution-phase peptide synthesis. The note with it: for conjugation yield: conjugation step.

The source of these data is patent US20240247030A1 (Seagen Inc., priority 2014, published 2024).

In turn, “(2S,3S,4S,5R,6S)-6-(2-(3-((S)-3-amino-2-(2,5-dioxo-2,5-dihydro-1H-pyrrol-1-yl)propanamido)propanamido)-4-((5S,8S,11S,12R)-11-((S)-sec-butyl)-5,8-diisopropyl-12-(2-((S)-2-((1R,2R)-1-methoxy-2-methyl-3-oxo-3-(((S)-2-phenyl-1-(thiazol-2-yl)ethyl)amino)propyl)pyrrolidin-1-yl)-2-oxoethyl)-4,10-dimethyl-3,6,9-trioxo-2,13-dioxa-4,7,10-triazatetradecyl)phenoxy)-3,4,5-trihydroxytetrahydro-2H-pyran-2-carboxylic acid” yielded a step yield (late stage modification step) of 99%. On the same count and under the same terms, the figure for “mDPR-Val-Cit-PAB-quaternary amine-AE (mDPR-vcPAB4-AE)” is 99%. With “FMOC-Gluc(O-Allyl)Q-Mep-Ile-Tuv(OAc)-Tup-O-Allyl”, the step yield (coupling step) came out at 46%.

In turn, “(S)—N-(3-(3-((S)-3-amino-2-(2,5-dioxo-2,5-dihydro-1H-pyrrol-1-yl)propanamido)propanamido)-4-(((2S,3R,4S,5S,6S)-6-carboxy-3,4,5-trihydroxytetrahydro-2H-pyran-2-yl)oxy)benzyl)-1-(((S)-1-(((3R,4S,5S)-3-methoxy-1-((S)-2-((1R,2R)-1-methoxy-2-methyl-3-oxo-3-(((S)-2-phenyl-1-(thiazol-2-yl)ethyl)amino)propyl)pyrrolidin-1-yl)-5-methyl-1-oxoheptan-4-yl)(methyl)amino)-3-methyl-1-oxobutan-2-yl)amino)-N,N,3-trimethyl-1-oxobutan-2-aminium” yielded a step yield (late stage modification step) of 99%.

In turn, Val-Ala-PAB-TubM displayed a step yield (late stage modification step) of 63%. In turn, Boc-Val-Ala-PAB-TubM-OtBu returned a conjugation yield of 58%. As to “(S)-allyl 2-((2R,3R)-3-((S)-1-((3R,4S,5S)-4-((S)-2-((S)-2-(dimethylamino)-3-methylbutanamido)-N,3-dimethylbutanamido)-3-methoxy-5-methylheptanoyl)pyrrolidin-2-yl)-3-methoxy-2-methylpropanamido)-3-phenylpropanoate”, under “late stage modification step”, the step yield worked out at 71%.

The substance “(2S,4R)-tert-butyl 4-(2-((1R,3R)-1-acetoxy-3-((2S,3S)—N,3-dimethyl-2-((R)-1-methylpiperidine-2-carboxamido)pentanamido)-4-methylpentyl)thiazole-4-carboxamido)-2-methyl-5-phenylpentanoate” came in with a step yield (late stage modification step) of 32%.

With mDPR(Boc)-Val-Cit-PAB-AE, the conjugation yield was 17%. Where the note is “late stage modification step”, mDPR-Val-Glu-PABQ-TubM-OH had a step yield of 93%. In turn, BOC-Val-Glu(OtBu)-PABQ-TubM-OAllyl had a conjugation yield of 85%.
